Assay results published in patent US11717499B2 (priority 2011, dated 2023).

Tested on: inflammatory cell infiltration in placenta
Conditions: LPS-treated mouse rescued with 1.56 mg/kg DMA; representative section

## CC(=O)N(C)C [DMA, N,N-dimethylacetamide]
  Inflammatory cells in placental labyrinth section: Inflammatory cells are scant
